Results reported in PMC11604427, “Discovery of novel and highly potent dual-targeting PKMYT1/HDAC2 inhibitors for hepatocellular carcinoma through structure-based virtual screening and biological evaluation” (Frontiers in Pharmacology, 2024).

Tests used:
Assay in all cases: MTT assay
Format in all cases: cell-based
HepG2 = settings: Homo sapiens, HepG2, 48 h, read-out: IC50 (μM) ± SD HepG2
Experimental: (§1) Cells at a density of 4×10^3 cells/well were inoculated into 96-well plates for overnight culture at 37°C. […] Then, 100 μL of a 0.5 mg/mL MTT solution was pipetted into each well, and the incubation was prolonged for 4 h, resulting in the formation of a purple precipitate. Afterward, 200 μL of DMSO was added to each well, and the plate was vortexed for 10 min. The absorbance at 570 nm was determined with a Synergy 4 microplate reader (BioTek, United States). Each experiment was performed three times under the same conditions.

SNU449 = settings: Homo sapiens, SNU-449, 48 h, read-out: IC50 (μM) ± SD SNU449
Experimental: as §1

Hep3B = settings: Homo sapiens, 48 h, read-out: IC50 (μM) ± SD Hep3B
Experimental: as §1

[1] = system: normal human liver cell line L02; settings: 48 h, read-out: IC50 L02
Experimental: as §1

Huh7 = settings: Homo sapiens, Huh-7, 48 h, read-out: IC50 (μM) ± SD Huh7
Experimental: as §1

HepG2/MDR = settings: Homo sapiens, HepG2, 48 h, read-out: IC50 (μM) ± SD HepG2/MDR
Experimental: as §1

For `O=C(CCCCCCC(=O)Nc1ccccc1)NO` [SAHA, Vorinostat, reference compound], the IC50 (HepG2) was 0.98 ± 0.06 µM, the IC50 (SNU449) was 2.07 ± 0.22 µM and the IC50 (Hep3B) was 1.25 ± 0.11 µM. The IC50 [1] was 79 ± 6.31 µM, the IC50 (Huh7) was 1.43 ± 0.08 µM and the IC50 (HepG2/MDR) was 6.84 ± 0.52 µM.
